Measured values as given in patent publication US9783510B2, “Small molecule mediated transcriptional induction of E-cadherin” (Vanderbilt University, priority 2014, dated 2017).
At least one compound was matched to its structure with a doubt left.

Tests used:
[1] = test system: human E-cadherin promoter; test: E-cadherin promoter luciferase reporter assay in SW620inv cells; assay type: cell-based; settings: proximal (173 bp) region of the E-cadherin promoter
Protocol: The 1.4 kbp E-cadherin promoter plasmid (E1) and deletion plasmids E2-E8 were a gift from Dr. Eric Fearon at The University of Michigan (Liu, Y. N., et al. (2005) Onocogene 24, 8277-8290). All plasmid constructs were sequenced at the Vanderbilt University Sequencing Core to confirm the E-cadherin promoter fragments using the PCR primers listed in Table I and herein below. Luciferase assays were performed as previously described (Freeman, T. J., et al. (2012) Gastroenterology 142, 562-572).
Compound 13 (259Y) induces>20-fold increases in reporter activation driven by the 1130 bp promoter region in an assay in which an exogenous firefly luciferase gene is driven by defined regions of the human E-cadherin promoter. This region includes consensus binding sequences for several known transcription factors, including AML1, P300, Snail and SP1 (Liu, Y. N., et al. (2005) Oncogene 24, 8277-8290). […]
Referring to FIG. 5, a diagram of the 8 E-cadherin promoter reporter plasmids (full length and truncations) utilized to determine promoter elements critical for promoter activity is shown. […] Fold change is Log2^−ΔΔCp of the normalized fluorescence signal relative to the mean of the DMSO treated group. Statistical significance was calculated using a two-way ANOVA (Holm-Sidak method): ****=p<0.00005, ***=p<0.0005, **=p<0.005, *=p<0.05. […]

[2] = test system: H3K4me2 in H520 cells; test: Western blot of H3K4me2, H520 cells; assay type: cell-based; settings: H520 cells (FIG. 7D)
[3] = test system: HEp3(Human Epidermoid Carcinoma) cells in the CAM of avian embryos; test: Chick Chorioallantoic Membrane (CAM) assay with GFP HEp3 cells, intravital imaging; assay type: in vivo; settings: embryos treated 24 hours post-implantation, imaged at 4, 6 and 8 days
[4] = test system: E-cadherin mRNA in SW620inv cells; test: qPCR of E-cadherin specific mRNA, SW620inv cells; assay type: cell-based
[5] = test system: E-cadherin, H3K9Ac, H3K4me3, H3K27me3, H3K4me2 in SW620inv cells; test: Western blot time course of E-cadherin and histone H3 marks, SW620inv cells; assay type: cell-based
[6] = test system: NMuMG cells treated with TGF-β; test: Reversal of TGF-β-induced EMT in NMuMG cells (immunofluorescence, qPCR); assay type: cell-based, Murine
[7] = test system: HEp3 cells; test: E-cadherin mRNA, protein and histone marks in HEp3 cells; assay type: cell-based, Human; settings: 24 hours
Protocol: To determine if Compound 13 restores E-cadherin in HEp3 cells, the effect of Compound 13 treatment on E-cadherin mRNA expression was tested. Compound 13 induced an 8-fold increase in E-cadherin mRNA by 6 hours after treatment in the […] compared with Compound 124 treatment (FIG. 15C). Not only E-cadherin specific mRNA, but also E-cadherin protein, was induced by Compound 13 treatment (FIG. 15D).
Avian embryos were treated with Compound 124 (266Y) or Compound 13 (259Y) 24 hours after intravenous injection of GFP-expressing HEp3 cells. The formation of metastatic colonies was monitored visually by a fluorescent stereoscope at 50× magnification. Representative images are shown, scale bar=500 μm (15A). Colony diameter was quantified at 6 days post injection. The data represent a total of 30 embryos from two independent experiments: 12 treated with Compound 124 (266Y) and 18 treated with Compound 13 (259Y). […] Each data point on the scatterplot represents the geometric mean diameter of 6-10 colonies analyzed per embryo (15B). Relative E-cadherin mRNA expression in HEp3 cells following 6 hours treatment with either Compound 124 (266Y) or Compound 13 (259Y) is shown (15C). Western blot showing E-cadherin protein re-expression in HEp3 cells following treatment with DMSO, Compound 124 (266Y), or Compound 13 (259Y) for 24 hours is shown (15D). […]

[8] = test system: HMEC-1 cells; test: E-cadherin, VE-cadherin, Vimentin and histone marks in HMEC-1 cells (qPCR, Western blot); assay type: cell-based, human
[9] = test system: HMEC-1 cells; test: Scratch wound healing assay, HMEC-1 cells; assay type: cell-based, human; settings: 10 μM, observation period of 24 hours
[10] = test system: E-cadherin protein in SW620inv cells; test: Quantitative Western blot of E-cadherin protein, SW620inv time course; assay type: cell-based; settings: 6 hours post-treatment, compared with DMSO vehicle or Compound 124
[11] = test system: HMEC-1 cells; test: Tube formation on Matrigel, HMEC-1 cells; assay type: cell-based, human; settings: HMEC-1 on Matrigel, 10 μmol/L
[12] = test system: proximal region of the E-cadherin promoter (Cdh1) in SW620inv cells; test: ChIP assay at proximal E-cadherin promoter, SW620inv cells; assay type: cell-based
[13] = NMuMG, relative to cells treated with TGF-β alone, 6 hours

## O=C(NCCCNC(=O)c1cccnc1O)c1cc(-c2ccccc2)on1 [Compound 13, N-(3-(2-hydroxynicotinamido)propyl)-5-phenylisoxazole-3-carboxamide]
[1]
  promoter-responsive activity with proximal promoter region: retained
[2]
  levels of H3K4me2: increased levels
[3]
  motility of tumor cells (single cells emanating from the colonies): inhibition of motility
[4]; 1 hour cycloheximide, then 10 μM compound for 6 hours
  effect of cycloheximide (CHX) pre-treatment on the increase in E-cadherin mRNA levels: did not prevent the increase
[4]; SW620inv, 10 μM, by 3 hours after treatment
  E-cadherin mRNA levels: detectable increases
[5]; SW620inv cells (FIG. 7D)
  levels of H3K4me2: increased levels
[5]; SW620inv, Western blot, 10 μM
  time through which H3K9Ac and H3K4me3 changes are maintained: 24 h
[5]; SW620inv, Western blot, 10 μM Compound 13, 0.33 μM TSA
  time at which increase in H3K9Ac and H3K4me3 levels is first observed: 6 h
[6]; NMuMG cells treated with TGF-β, 10 μM, immunofluorescence
  E-cadherin expression at the plasma membrane: restored
[6]; [13]
  expression of E-cadherin mRNA species: increased expression
  expression of Vimentin mRNA species: decreased expression
  expression of occludin mRNA species: increased expression
[7]; HEp3, 10 μM
  global histone active marks (H3K9Ac, H3K4me3, or H3K4me2): increased
[7]; HEp3, Western blot
  E-cadherin protein: induced
[8]; HMEC-1, Western blot
  levels of VE-cadherin: decreased levels
  levels of Vimentin: decreased levels
[8]; HMEC-1, Western blot, by 24 hour after treatment
  E-cadherin protein levels: from undetectable levels to abundant levels
[8]; HMEC-1, at 12 hours
  levels of H3K4me3: modest increases
  levels of H3K27me3: modest increases
[8]; HMEC-1, detectable by 1 hour after treatment
  levels of H3K9Ac: increased levels
[9]
  HMEC-1 monolayer wound healing: antagonized
[10]
  E-cadherin protein levels in lysates: doubled
[11]
  tube morphology: tubes that were less condensed and tended to assemble and form larger cellular aggregates at the branch points
[12]; ChIP internal control (FIG. 8)
  Pol II association with GAPDH promoter: did not alter
[12]; SW620inv, ChIP
  H3K27me3 binding at the E-cadherin promoter: no significant difference
